For 2 molecules, binding results are on record in publication PMC2911597, “Three-Dimensional Structure of TspO by Electron Cryomicroscopy of Helical Crystals” (Structure(London, England:1993), 2010).

The target of assay [1] is tryptophan-rich sensory protein (TspO) from Rhodobacter sphaeroides (Rhodobacter sphaeroides) (UniProt Q9RFC8). As to the kind of experiment: native gel or EMSA; blue native PAGE as a1, sample incubated with 1% SDS for 10 min before the loading dye; both purified. In general terms: In EMSA bound probe runs differently from free probe, usually more slowly.
Assay [2] has as its target EmrE (UniProt P23895). The description is as above.
Assay [3] addresses EmrE (UniProt P23895). The assay can be described thus: native gel or EMSA; blue native PAGE, 4%-16% gradient Novex Bis-Tris gels, purified protein in DDM, 5-10 ug protein/lane, 4°C; both purified.

These are yes or no findings as the source states them, for the method shown. Some binding calls cover weakened binding; strength is not graded here.

B1: tryptophan-rich sensory protein (TspO) from Rhodobacter sphaeroides (natural protein, UniProt Q9RFC8 1-158, looked up)
chain: MNMDWALFLTFLAACGAPATTGALLKPDEWYDNLNKPWWNPPRWVFPLAWTSLYFLMSLAAMRVAQLEGSGQALAFYAAQLAFNTLWTPVFFGMKRMATALAVVMVMWLFVAATMWAFFQLDTWAGVLFVPYLIWATAATGLNFEAMRLNWNRPEARA
notes: also called rsTspO; TspO-His6; source: E. coli BL21(DE3), pET29, purified in DDM (NiNTA-agarose, gel filtration)
As to B1, in assay [1], the binding result is “no binding (condition: with 1% SDS)”.

B2: EmrE (protein, UniProt P23895 1-110)
chain: MNPYIYLGGAILAEVIGTTLMKFSEGFTRLWPSVGTIICYCASFWLLAQTLAYIPTGIAYAIWSGVGIVLISLLSWGFFGQRLDLPAIIGMMLICAGVLIINLLSRSTPH
Regarding B2, the values for the binding entry in assay [2] and in assay [3] were “no binding (condition: with 1% SDS)” and “binds”, respectively.
